# Values of other authors in patent US20070004691A1, “Antitumoral combinations containing et-743 and a cruciferous and a cruciferous indole compound” (priority 2003, published 2007).
# At least one compound was matched to its structure with a doubt left.
# Test system: female rat
# Settings: high-dose dexamethasone pretreatment; cited from earlier work
smiles,measurement,value
C[C@@H]1C[C@H]2[C@@H]3CCC4=CC(=O)C=C[C@]4(C)[C@@]3(F)[C@@H](O)C[C@]2(C)[C@@]1(O)C(=O)CO [dexamethasone],ET-743-mediated hepatotoxicity after pretreatment,abrogate
